Measurements reported in publication PMC11297949.

By UniProt entry, the sequences of proteins in these tests, tags left out.
UniProt Q5T2D3: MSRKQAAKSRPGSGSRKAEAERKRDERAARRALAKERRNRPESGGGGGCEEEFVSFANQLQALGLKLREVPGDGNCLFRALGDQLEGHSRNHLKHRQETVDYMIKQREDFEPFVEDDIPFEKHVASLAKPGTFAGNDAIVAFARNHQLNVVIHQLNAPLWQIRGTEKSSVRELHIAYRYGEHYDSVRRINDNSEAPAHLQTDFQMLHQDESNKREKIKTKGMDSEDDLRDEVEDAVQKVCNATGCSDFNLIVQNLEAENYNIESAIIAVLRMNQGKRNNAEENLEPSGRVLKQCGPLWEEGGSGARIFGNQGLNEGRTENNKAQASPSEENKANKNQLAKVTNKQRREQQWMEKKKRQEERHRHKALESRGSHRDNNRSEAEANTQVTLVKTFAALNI

Biological target: OTUD3 overexpressed in Farage cells (UniProt Q5T2D3)
Assay: affinity purification with mass spectrometry; immunoprecipitation from lysates of Farage cells overexpressing OTUD3 versus controls, then mass spectrometry

B1: MYL12A in Farage cells (protein, UniProt P19105 1-171)
chain: MSSKRTKTKTKKRPQRATSNVFAMFDQSQIQEFKEAFNMIDQNRDGFIDKEDLHDMLASLGKNPTDEYLDAMMNEAPGPINFTMFLTMFGEKLNGTDPEDVIRNAFACFDEEATGTIQEDYLRELLTTMGDRFTDEEVDELYREAPIDKKGNFNYIEFTRILKHGAKDKDD
- binding: binds

Results are given in words; binding and its absence hold for the method and conditions named. In cells and extracts the contact can be indirect. A yes stands for co-enrichment or nearness to the bait. Other partners may have been found.
